Test results as given in publication PMC10958042.
Results are given in words; binding and its absence hold for the method and conditions named. In cells and extracts the contact can be indirect. Some results given as binding are weak or reduced against the parent protein; the word gives no strength. Sequences can lack the tags named with a protein.

T1: Protein A-ATGL A104E (human) (UniProt Q96AD5)
T1 sequence: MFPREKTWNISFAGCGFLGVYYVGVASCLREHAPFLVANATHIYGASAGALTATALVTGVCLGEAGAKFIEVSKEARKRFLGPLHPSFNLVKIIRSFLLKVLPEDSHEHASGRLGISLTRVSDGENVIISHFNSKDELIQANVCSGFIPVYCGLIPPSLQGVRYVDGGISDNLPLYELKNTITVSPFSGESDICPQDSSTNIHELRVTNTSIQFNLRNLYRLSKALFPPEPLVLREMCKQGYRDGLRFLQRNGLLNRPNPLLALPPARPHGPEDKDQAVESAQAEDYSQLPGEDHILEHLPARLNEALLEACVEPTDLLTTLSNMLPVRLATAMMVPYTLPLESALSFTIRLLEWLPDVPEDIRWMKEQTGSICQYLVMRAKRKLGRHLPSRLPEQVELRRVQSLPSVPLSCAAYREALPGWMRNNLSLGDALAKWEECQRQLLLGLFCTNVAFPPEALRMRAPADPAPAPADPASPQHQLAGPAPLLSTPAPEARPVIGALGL

T2: Protein A-ATGL I70A (human) (UniProt Q96AD5)
T2 sequence: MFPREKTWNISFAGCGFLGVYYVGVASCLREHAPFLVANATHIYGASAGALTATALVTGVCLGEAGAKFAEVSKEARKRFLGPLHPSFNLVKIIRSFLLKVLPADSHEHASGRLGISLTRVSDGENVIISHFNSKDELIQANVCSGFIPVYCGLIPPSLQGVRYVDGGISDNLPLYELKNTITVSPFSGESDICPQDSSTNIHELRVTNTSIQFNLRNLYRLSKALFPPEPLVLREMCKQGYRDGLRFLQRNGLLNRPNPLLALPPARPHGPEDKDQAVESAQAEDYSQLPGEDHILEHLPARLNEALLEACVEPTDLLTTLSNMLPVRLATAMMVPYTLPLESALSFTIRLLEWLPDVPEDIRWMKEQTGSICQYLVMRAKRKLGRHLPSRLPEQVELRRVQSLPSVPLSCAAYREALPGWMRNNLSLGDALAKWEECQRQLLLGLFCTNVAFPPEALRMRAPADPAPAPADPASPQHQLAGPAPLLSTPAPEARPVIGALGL

T3: Protein A-ATGL P86K (human) (UniProt Q96AD5)
T3 sequence: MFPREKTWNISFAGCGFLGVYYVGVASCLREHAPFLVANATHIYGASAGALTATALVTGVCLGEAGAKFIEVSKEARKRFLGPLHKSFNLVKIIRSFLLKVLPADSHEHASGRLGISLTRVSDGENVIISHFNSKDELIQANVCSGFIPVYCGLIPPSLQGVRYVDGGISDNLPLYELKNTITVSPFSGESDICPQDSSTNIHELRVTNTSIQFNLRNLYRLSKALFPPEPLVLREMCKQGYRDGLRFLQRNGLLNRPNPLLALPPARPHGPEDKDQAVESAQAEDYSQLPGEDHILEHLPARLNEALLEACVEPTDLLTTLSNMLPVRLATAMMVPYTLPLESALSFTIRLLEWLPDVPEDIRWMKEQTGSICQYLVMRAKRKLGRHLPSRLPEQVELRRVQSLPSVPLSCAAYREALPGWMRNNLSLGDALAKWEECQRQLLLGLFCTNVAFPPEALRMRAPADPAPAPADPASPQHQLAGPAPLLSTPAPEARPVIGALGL

T4: Protein A-ATGL R351L (human) (UniProt Q96AD5)
T4 sequence: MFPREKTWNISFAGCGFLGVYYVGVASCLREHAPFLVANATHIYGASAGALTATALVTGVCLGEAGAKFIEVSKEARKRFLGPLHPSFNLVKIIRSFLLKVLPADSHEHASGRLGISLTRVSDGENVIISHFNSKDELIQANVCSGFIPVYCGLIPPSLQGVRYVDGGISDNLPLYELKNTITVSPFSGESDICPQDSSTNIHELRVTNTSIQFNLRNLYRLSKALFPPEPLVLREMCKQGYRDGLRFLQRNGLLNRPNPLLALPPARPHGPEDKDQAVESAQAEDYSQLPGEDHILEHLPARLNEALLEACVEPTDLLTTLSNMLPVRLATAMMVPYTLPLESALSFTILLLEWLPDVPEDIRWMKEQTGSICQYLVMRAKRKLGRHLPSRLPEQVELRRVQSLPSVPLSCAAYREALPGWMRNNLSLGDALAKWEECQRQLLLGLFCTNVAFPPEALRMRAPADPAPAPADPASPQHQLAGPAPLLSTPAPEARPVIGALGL


How the values were obtained:
Assay in all cases: co-IP; LUMIER luminescence-based co-immunoprecipitation: Protein A-ATGL variant and firefly-luciferase partner co-expressed in HEK293T, SDS-free RIPA2 lysate precipitated in IgG-coated plates 2 h at 4 °C, luminescence read; log2 fold change against wild-type ATGL, two experiments in triplicate
[1] = target: T1, Protein A-ATGL A104E (human)
[2] = target: T2, Protein A-ATGL I70A (human)
[3] = target: T3, Protein A-ATGL P86K (human)
[4] = target: T4, Protein A-ATGL R351L (human)

| binding [1] | binding [2] | binding [3] | binding [4] | Binder |
| --- | --- | --- | --- | --- |
|  | binds | binds | binds | murine Plin1 wild type, firefly-luciferase fusion (protein, UniProt Q8CGN5 1-517) MSMNKGPTLLDGDLPEQENVLQRVLQLPVVSGTCECFQKTYNSTKEAHPLVASVCNAYEKGVQGASNLAAWSMEPVVRRLSTQFTAANELACRGLDHLEEKIPALQYPPEKIASELKGTISTRLRSARNSISVPIASTSDKVLGATLAGCELALGMAKETAEYAANTRVGRLASGGADLALGSIEKVVEFLLPPDKESAPSSGRQRTQKAPKAKPSLVRRVSTLANTLSRHTMQTTAWALKQGHSLAMWIPGVAPLSSLAQWGASAAMQVVSRRQSEVRVPWLHNLAASQDESHDDQTDTEGEETDDEEEEEESEAEENVLREVTALPNPRGLLGGVVHTVQNTLRNTISAVTWAPAAVLGTVGRILHLTPAQAVSSTKGRAMSLSDALKGVTDNVVDTVVHYVPLPRLSLMEPESEFRDIDNPSAEAERKGSGARPASPESTPRPGQPRGSLRSVRGLSAPSCPGLDDKTEASARPGFLAMPREKPARRVSDSFFRPSVMEPILGRAQYSQLRKKS |
| binds |  |  | binds | murine Plin5 wild type, firefly-luciferase fusion (protein, UniProt Q8BVZ1 1-463) MDQRGEDTTLAPHSRMSGDQTAQDPGSSLGELDQQNVVNRVVALPLVKATCTAVSSAYNSAKDRHPLLGSACRLAEHCVCSVTTCALDHAQPLLEHLQPQLATVNDLACRGLDKLEEKLPFLQQPSDMVVTSAKDTVAKSVTGMVDLAQRGRRWSGELRRSMSQAMDMVLGKSEKLVDRFLPMTEAELAVLAAEAEGPEVGTVEEQRQQQGYFVRLGSLSARLRHLAYEHSLGKLRQSKHRTQEMLAQLQETLELIQHMQRGASPSPTFHPPKTQELWGSWSPCLENGRSHSEVELETLALSRSLTLELQNAVDALAGCVRGLPPSAQAKVAEVQRSVDALQATFADAHCLGDVAPTALAEGRGSVARAHACVDEFLDLVLRAMPLPWLVGPFAPILVEQSEPLINLATCVDEVVGDPDPRWAHMDWPAQKRAWEAESADPGGQEAEPPRGQGKHTMMPELDF |

More lines, now with the values behind:

| Binder | binding [1] | binding [2] | binding [3] | binding [4] |
| --- | --- | --- | --- | --- |
| CGI-58 wild type, firefly-luciferase fusion (protein, UniProt Q8WTS1 1-349) MAAEEEEVDSADTGERSGWLTGWLPTWCPTSISHLKEAEEKMLKCVPCTYKKEPVRISNGNKIWTLKFSHNISNKTPLVLLHGFGGGLGLWALNFGDLCTNRPVYAFDLLGFGRSSRPRFDSDAEEVENQFVESIEEWRCALGLDKMILLGHNLGGFLAAAYSLKYPSRVNHLILVEPWGFPERPDLADQDRPIPVWIRALGAALTPFNPLAGLRIAGPFGLSLVQRLRPDFKRKYSSMFEDDTVTEYIYHCNVQTPSGETAFKNMTIPYGWAKRPMLQRIGKMHPDIPVSVIFGARSCIDGNSGTSIQSLRPHSYVKTIAILGAGHYVYADQPEEFNQKVKEICDTVD | binds | binds | binds |  |
| CIDEC wild type, firefly-luciferase fusion (protein, UniProt Q96AQ7 1-238) MEYAMKSLSLLYPKSLSRHVSVRTSVVTQQLLSEPSPKAPRARPCRVSTADRSVRKGIMAYSLEDLLLKVRDTLMLADKPFFLVLEEDGTTVETEEYFQALAGDTVFMVLQKGQKWQPPSEQGTRHPLSLSHKPAKKIDVARVTFDLYKLNPQDFIGCLNVKATFYDTYSLSYDLHCCGAKRIMKEAFRWALFSMQATGHVLLGTSCYLQQLLDATEEGQPPKGKASSLIPTCLKILQ | binds | binds | binds | binds |
| G0S2 wild type, firefly-luciferase fusion (protein, UniProt P27469 1-103) METVQELIPLAKEMMAQKRKGKMVKLYVLGSVLALFGVVLGLMETVCSPFTAARRLRDQEAAVAELQAALERQALQKQALQEKGKQQDTVLGGRALSNRQHAS | binds | binds | binds | binds |
